The other results are listed elsewhere or left out. Residues, ends and D or L forms follow the SMILES beside them. *: point of attachment. Cbz = O=C(OCc1ccccc1)*
Experiments:
Test in all cases: log2 fold change, soluble protein after heating vs DMSO (PISA); higher = thermal stabilisation; K562 cells, 10 uM, 30 min; active = over 0.2 and 3.5 SD of the protein, either way, in both replicates (recomputed)
IRAK-1-4 Inhibitor I = compound: C1COCCN1CCN2C3=CC=CC=C3N=C2NC(=O)C4=CC(=CC=C4)[N+](=O)[O-] [IRAK-1-4 Inhibitor I]
Summary of the method: (§1)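 Thermal stability values are relative to control samples and come from duplicates. They are expressed as log2 fold changes. For measurement, K562 cells (2×10^6 cells/mL) received 10 μM compound for 30 min, and aliquots were heated for 3 min over 48°C-58°C, pooled, and extracted at 4°C in PBS with 0.5% NP-40. Soluble protein, the supernatant after 21,000xg for 90 min, was quantified by TMTpro 16plex LC-MS/MS with equalised channel sums.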

By UniProt entry, the sequences of proteins in these tests, tags left out. Where a name states a change or a piece, a line headed by the entry shows the natural chain unless it says otherwise.
UniProt Q8N465: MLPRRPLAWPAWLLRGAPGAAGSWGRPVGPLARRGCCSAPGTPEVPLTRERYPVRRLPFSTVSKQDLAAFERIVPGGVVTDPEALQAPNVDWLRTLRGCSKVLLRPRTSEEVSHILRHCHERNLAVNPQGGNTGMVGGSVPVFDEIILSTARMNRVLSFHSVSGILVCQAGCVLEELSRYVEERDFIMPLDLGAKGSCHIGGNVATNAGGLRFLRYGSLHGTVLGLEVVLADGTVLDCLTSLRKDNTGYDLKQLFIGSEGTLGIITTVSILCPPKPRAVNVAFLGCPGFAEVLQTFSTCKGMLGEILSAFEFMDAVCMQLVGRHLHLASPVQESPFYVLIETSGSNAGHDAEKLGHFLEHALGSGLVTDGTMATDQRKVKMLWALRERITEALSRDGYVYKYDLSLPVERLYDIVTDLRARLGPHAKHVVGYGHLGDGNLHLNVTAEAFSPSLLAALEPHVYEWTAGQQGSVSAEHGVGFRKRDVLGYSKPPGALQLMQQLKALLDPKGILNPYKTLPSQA
UniProt Q05048: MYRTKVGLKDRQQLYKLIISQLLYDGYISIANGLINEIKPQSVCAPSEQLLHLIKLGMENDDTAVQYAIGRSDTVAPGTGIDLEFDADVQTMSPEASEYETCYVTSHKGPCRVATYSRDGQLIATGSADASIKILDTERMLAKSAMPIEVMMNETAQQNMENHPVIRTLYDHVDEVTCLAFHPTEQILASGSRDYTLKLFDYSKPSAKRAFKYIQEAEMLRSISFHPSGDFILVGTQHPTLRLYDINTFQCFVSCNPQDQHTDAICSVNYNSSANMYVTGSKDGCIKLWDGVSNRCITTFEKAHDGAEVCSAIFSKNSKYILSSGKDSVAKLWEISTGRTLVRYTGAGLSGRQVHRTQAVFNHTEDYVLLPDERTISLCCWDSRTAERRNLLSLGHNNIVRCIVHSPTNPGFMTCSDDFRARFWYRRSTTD
UniProt P99999: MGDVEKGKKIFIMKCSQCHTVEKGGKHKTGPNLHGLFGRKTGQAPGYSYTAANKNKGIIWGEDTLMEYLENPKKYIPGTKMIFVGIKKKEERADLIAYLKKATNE
UniProt Q14247: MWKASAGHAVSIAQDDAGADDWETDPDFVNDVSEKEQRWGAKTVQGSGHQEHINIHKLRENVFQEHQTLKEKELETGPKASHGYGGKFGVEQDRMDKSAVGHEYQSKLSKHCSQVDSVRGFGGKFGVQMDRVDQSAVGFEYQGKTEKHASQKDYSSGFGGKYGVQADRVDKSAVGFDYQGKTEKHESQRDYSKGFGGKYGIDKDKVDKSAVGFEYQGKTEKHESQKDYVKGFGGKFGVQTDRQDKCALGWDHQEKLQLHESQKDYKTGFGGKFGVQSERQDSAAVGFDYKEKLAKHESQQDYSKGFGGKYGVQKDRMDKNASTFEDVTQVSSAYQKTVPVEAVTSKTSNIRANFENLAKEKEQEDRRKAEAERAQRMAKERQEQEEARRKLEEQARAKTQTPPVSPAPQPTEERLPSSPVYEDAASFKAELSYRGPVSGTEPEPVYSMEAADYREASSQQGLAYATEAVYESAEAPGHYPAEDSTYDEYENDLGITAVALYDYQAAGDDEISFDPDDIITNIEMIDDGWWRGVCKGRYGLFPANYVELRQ
UniProt Q9UHQ9: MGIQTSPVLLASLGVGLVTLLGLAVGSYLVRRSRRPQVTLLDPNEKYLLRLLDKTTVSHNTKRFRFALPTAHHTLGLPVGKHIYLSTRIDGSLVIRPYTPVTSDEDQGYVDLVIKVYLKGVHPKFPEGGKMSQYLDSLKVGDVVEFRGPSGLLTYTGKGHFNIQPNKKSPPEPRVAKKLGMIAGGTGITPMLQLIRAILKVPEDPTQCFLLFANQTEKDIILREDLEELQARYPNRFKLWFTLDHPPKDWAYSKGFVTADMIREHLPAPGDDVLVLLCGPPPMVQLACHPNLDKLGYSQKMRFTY
UniProt P04080: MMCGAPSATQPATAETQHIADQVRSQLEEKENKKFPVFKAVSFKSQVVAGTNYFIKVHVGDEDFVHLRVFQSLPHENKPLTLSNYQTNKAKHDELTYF
UniProt E9PJD7, whole entry, looked up: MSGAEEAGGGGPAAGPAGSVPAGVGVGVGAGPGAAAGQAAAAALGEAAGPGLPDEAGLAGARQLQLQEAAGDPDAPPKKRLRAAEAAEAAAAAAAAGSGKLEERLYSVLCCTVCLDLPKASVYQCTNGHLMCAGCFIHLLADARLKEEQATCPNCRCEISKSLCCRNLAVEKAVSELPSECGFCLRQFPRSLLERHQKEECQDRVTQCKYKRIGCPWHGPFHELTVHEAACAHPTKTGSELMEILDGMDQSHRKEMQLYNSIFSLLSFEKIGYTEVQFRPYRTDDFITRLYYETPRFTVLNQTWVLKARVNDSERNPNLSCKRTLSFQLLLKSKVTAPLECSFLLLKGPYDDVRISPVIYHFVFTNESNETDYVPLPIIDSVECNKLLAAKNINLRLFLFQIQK
UniProt P09668: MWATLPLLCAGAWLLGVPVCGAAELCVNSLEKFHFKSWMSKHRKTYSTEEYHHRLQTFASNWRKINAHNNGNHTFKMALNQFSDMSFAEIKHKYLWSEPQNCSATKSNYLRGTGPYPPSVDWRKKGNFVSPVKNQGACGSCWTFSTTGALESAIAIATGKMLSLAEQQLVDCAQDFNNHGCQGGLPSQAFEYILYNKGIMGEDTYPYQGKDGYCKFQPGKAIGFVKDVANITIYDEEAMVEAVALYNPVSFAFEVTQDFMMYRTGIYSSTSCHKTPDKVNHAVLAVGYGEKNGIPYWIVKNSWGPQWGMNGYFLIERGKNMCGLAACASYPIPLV
UniProt Q8WVC6: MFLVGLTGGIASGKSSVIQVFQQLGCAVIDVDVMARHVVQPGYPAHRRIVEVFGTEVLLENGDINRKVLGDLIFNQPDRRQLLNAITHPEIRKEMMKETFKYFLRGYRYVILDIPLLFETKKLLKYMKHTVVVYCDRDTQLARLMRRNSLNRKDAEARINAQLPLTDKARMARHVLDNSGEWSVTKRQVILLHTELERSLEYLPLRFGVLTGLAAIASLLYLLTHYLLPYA
UniProt Q1MSJ5: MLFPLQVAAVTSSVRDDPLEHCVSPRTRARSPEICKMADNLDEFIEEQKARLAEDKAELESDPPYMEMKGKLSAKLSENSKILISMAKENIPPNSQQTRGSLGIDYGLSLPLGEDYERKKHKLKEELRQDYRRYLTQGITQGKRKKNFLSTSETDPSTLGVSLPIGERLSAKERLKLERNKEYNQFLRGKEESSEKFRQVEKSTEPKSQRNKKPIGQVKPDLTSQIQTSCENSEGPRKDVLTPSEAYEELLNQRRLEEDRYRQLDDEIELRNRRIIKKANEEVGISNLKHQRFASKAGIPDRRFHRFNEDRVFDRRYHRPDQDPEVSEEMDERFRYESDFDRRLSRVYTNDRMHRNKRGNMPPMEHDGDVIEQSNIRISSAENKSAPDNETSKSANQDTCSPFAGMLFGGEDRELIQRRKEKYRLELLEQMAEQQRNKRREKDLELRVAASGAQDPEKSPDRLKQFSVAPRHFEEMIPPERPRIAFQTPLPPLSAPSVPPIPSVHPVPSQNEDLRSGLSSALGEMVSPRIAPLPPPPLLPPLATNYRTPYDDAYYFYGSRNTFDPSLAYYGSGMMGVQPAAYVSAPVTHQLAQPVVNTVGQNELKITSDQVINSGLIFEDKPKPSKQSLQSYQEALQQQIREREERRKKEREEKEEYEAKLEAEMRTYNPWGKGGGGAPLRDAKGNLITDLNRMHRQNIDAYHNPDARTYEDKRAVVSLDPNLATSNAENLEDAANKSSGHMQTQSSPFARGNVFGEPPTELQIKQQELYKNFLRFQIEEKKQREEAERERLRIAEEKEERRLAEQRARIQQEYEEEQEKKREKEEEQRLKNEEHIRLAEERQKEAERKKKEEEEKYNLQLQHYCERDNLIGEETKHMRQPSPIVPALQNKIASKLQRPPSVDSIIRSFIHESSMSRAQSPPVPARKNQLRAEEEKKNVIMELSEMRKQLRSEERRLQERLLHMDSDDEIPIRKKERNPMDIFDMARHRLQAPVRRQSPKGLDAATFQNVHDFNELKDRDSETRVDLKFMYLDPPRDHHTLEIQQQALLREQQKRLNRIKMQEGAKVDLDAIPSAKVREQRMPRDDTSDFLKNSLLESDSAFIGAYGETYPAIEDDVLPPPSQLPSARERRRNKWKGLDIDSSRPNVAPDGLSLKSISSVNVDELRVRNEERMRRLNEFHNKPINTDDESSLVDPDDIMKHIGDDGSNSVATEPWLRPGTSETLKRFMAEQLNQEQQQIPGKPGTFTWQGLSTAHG
UniProt Q58WW2: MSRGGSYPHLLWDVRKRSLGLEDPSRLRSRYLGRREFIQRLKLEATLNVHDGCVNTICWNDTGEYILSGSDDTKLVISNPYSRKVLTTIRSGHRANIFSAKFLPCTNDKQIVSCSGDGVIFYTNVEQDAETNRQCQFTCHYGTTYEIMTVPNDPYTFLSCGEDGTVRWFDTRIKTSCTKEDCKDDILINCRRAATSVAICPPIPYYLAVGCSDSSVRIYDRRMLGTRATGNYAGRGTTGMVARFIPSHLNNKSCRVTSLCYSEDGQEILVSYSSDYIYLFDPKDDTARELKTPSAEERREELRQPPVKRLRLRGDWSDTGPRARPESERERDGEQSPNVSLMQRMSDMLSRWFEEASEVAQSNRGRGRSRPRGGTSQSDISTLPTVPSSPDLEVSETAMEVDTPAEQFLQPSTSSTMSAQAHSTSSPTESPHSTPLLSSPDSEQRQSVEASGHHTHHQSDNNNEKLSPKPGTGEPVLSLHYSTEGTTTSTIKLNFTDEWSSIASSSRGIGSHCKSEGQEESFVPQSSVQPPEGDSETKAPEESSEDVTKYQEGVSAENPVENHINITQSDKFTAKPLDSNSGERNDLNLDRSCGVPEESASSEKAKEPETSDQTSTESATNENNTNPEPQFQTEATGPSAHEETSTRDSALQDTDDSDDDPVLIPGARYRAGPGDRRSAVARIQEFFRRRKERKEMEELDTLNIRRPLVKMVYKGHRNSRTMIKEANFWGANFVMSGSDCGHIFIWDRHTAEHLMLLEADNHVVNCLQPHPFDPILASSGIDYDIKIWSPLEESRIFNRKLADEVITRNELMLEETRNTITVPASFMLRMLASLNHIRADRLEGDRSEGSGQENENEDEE
UniProt P35221: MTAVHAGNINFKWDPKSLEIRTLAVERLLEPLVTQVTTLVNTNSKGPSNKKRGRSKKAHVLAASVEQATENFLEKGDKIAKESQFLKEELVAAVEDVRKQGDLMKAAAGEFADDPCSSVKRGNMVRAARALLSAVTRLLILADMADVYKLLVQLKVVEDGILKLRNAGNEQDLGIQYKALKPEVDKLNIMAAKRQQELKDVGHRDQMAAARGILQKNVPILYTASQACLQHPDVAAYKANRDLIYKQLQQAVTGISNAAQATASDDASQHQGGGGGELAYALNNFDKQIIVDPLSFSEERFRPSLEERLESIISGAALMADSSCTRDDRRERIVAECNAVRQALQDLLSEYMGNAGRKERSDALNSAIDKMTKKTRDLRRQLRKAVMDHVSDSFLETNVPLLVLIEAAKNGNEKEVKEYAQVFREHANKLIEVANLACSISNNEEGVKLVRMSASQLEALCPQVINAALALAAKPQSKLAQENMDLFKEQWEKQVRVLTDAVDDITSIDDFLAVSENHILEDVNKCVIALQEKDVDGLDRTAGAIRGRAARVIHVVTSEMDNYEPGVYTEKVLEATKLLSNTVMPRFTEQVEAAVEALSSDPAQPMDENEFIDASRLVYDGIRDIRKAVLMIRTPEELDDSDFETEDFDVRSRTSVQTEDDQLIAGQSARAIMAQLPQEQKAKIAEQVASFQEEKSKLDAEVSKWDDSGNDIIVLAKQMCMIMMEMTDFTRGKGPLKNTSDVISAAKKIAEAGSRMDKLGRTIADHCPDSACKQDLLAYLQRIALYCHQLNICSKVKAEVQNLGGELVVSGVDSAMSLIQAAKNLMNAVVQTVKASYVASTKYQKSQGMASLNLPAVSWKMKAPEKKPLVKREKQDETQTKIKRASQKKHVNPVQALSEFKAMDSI

ibrutinib = compound: C=CC(=O)N1CCC[C@@H](n2nc(-c3ccc(Oc4ccccc4)cc3)c3c(N)ncnc32)C1 [ibrutinib]
Summary of the method: as §1

[1] = compound: CC(=O)c1cnc2ccc(-c3cc(Cl)c(O)c(Cl)c3)nc2c1N[C@H]1CC[C@H](CN(C)C)CC1
Summary of the method: as §1

ralimetinib = compound: CC(C)(C)Cn1c(N)nc2ccc(-c3[nH]c(C(C)(C)C)nc3-c3ccc(F)cc3)nc21 [ralimetinib]
Summary of the method: as §1

[2] = compound: CC(C)(O)CC(=O)NCCn1ccc2ncnc(Nc3ccc(Oc4cccc(C(F)(F)F)c4)c(Cl)c3)c21
Summary of the method: as §1

[3] = compound: CC(C)C1=C2N=C(C=C(N2N=C1)NCC3=CC=CC=C3)NCCCCCCN
Summary of the method: as §1

[4] = compound: CC(C)C[C@@H](C=O)NC(=O)[C@H](CC(C)C)NC(=O)[C@H](CC(C)C)NC(=O)OCc1ccccc1
Summary of the method: as §1

pinometostat = compound: CC(C)N(C[C@H]1O[C@@H](n2cnc3c(N)ncnc32)[C@H](O)[C@@H]1O)[C@H]1C[C@@H](CCc2nc3cc(C(C)(C)C)ccc3[nH]2)C1 [pinometostat]
Summary of the method: as §1

[5] = compound: CC1=C(C(CC(=O)N1)C2=CC=C(C=C2)C(F)(F)F)C(=O)NC3=C(C=C4C(=C3)C=NN4)F
Summary of the method: as §1

[6] = compound: CC1=C(C2=C(C=C1)C(=O)C3=CC=CC=C3N2CCCN)C
Summary of the method: as §1

[7] = compound: CC1=C(C=C(C=C1)NC(=O)C2=CC(=CC=C2)C(C)(C)C#N)NC3=CC4=C(C=C3)N=CN(C4=O)C
Summary of the method: as §1

[8] = compound: CC1=C(C=C(C=C1)NC(=O)C2=CC(=CC=C2)N(C)C)NC(=O)C3=CC=C(C=C3)O
Summary of the method: as §1

[9] = compound: CC1=CC=C(C=C1)SC2=C3C=C(SC3=CN=C2)C(=O)N
Summary of the method: as §1

[10] = compound: CC1=NC(=CC=C1)C2=C(N=C(N2)C(C)(C)C)C3=CC4=NC=CN=C4C=C3
Summary of the method: as §1

Nexturastat A = compound: CCCCN(Cc1ccc(C(=O)NO)cc1)C(=O)Nc1ccccc1 [Nexturastat A]
Summary of the method: as §1

vemurafenib = compound: CCCS(=O)(=O)Nc1ccc(F)c(C(=O)c2c[nH]c3ncc(-c4ccc(Cl)cc4)cc23)c1F [vemurafenib]
Summary of the method: as §1

[11] = compound: CCCS(=O)(=O)Nc1ccc(F)c(C(=O)c2c[nH]c3ncc(Cl)cc23)c1F
Summary of the method: as §1

[12] = compound: CCCc1cc(C)[nH]c(=O)c1CNC(=O)c1cc(-c2ccnc(N3CCN(C)CC3)c2)cc2c1cnn2C(C)C
Summary of the method: as §1

givinostat = compound: CCN(CC)Cc1ccc2cc(COC(=O)Nc3ccc(C(=O)NO)cc3)ccc2c1 [givinostat]
Summary of the method: as §1

barasertib = compound: CCN(CCCOc1ccc2c(Nc3cc(CC(=O)Nc4cccc(F)c4)[nH]n3)ncnc2c1)CCOP(=O)(O)O [barasertib]
Summary of the method: as §1

Measured: log2 fold change

D2HGDH (UniProt Q8N465)
inactive: IRAK-1-4 Inhibitor I -0.093 | ibrutinib -0.027 | [1] -0.006 | ralimetinib -0.122 | [2] -0.04 | [3] 0.089 | [4] -0.05 | pinometostat -0.022 | [5] -0.016 | [6] -0.047 | [7] 0.011 | [8] -0.101 | [9] 0.004 | [10] 0.004 | Nexturastat A -0.127 | vemurafenib -0.011 | [11] 0.005 | [12] 0.047 | givinostat -0.036 | barasertib 0.036

CSTF1 (UniProt Q05048)
inactive: IRAK-1-4 Inhibitor I 0.012 | ibrutinib -0.011 | [1] 0.043 | ralimetinib -0.136 | [2] 0.021 | [3] 0.126 | [4] -0.098 | pinometostat -0.079 | [5] 0.079 | [6] 0.158 | [7] -0.027 | [8] -0.052 | [9] 0.022 | [10] 0.004 | Nexturastat A -0.169 | vemurafenib -0.026 | [11] -0.033 | [12] -0.066 | givinostat -0.115 | barasertib -0.02

CYCS (UniProt P99999)
inactive: IRAK-1-4 Inhibitor I 0.095 | ibrutinib -0.02 | [1] 0.028 | ralimetinib -0.02 | [2] 0.037 | [3] 0.087 | [4] 0.034 | pinometostat -0.038 | [5] 0.067 | [6] 0.012 | [7] -0.032 | [8] 0.012 | [9] 0.015 | [10] 0.002 | Nexturastat A -0.138 | vemurafenib -0.009 | [11] -0.01 | [12] 0.02 | givinostat -0.04 | barasertib 0.013

CTTN (UniProt Q14247)
inactive: IRAK-1-4 Inhibitor I 0.064 | ibrutinib 0.001 | [1] 0.024 | ralimetinib -0.012 | [2] 0.017 | [3] 0.069 | [4] -0.006 | pinometostat -0.019 | [5] -0.007 | [6] 0.035 | [7] -0.026 | [8] 0.006 | [9] -0.005 | [10] 0.017 | Nexturastat A -0.095 | vemurafenib -0.023 | [11] -0.028 | [12] -0.045 | givinostat -0.039 | barasertib 0

CYB5R1 (UniProt Q9UHQ9)
inactive: IRAK-1-4 Inhibitor I 0.025 | ibrutinib -0.016 | [1] -0.019 | ralimetinib -0.106 | [2] 0.003 | [3] 0.002 | [4] -0.015 | pinometostat -0.053 | [5] 0.017 | [6] 0.024 | [7] -0.026 | [8] 0.003 | [9] 0.021 | [10] 0.008 | Nexturastat A -0.037 | vemurafenib -0.03 | [11] 0.01 | [12] -0.025 | givinostat 0.001 | barasertib 0.007

CTU2 (UniProt Q2VPK5)
inactive: IRAK-1-4 Inhibitor I 0.093 | ibrutinib 0.002 | [1] 0.025 | ralimetinib -0.03 | [2] -0.046 | [3] -0.012 | [4] 0.023 | pinometostat 0 | [5] -0.007 | [6] 0.004 | [7] -0.021 | [8] -0.005 | [9] 0 | [10] 0.104 | Nexturastat A -0.085 | vemurafenib -0.02 | [11] 0.031 | [12] -0.071 | givinostat 0.006 | barasertib 0.006

CSTB (UniProt P04080)
inactive: IRAK-1-4 Inhibitor I 0.066 | ibrutinib 0.008 | [1] -0.041 | ralimetinib -0.079 | [2] -0.09 | [3] 0.069 | [4] -0.009 | pinometostat 0.001 | [5] -0.006 | [6] -0.022 | [7] 0.023 | [8] -0.086 | [9] 0.008 | [10] -0.023 | Nexturastat A -0.019 | vemurafenib -0.106 | [11] 0.008 | [12] -0.216 | givinostat 0.002 | barasertib -0.032

CYHR1 (UniProt E9PJD7)
inactive: IRAK-1-4 Inhibitor I -0.005 | ibrutinib 0.073 | [1] -0.013 | ralimetinib -0.111 | [2] -0.047 | [3] 0.207 | [4] 0.052 | pinometostat 0.033 | [5] -0.062 | [6] 0.06 | [7] 0.043 | [8] 0.102 | [9] -0.038 | [10] -0.004 | Nexturastat A -0.098 | vemurafenib -0.063 | [11] -0.039 | [12] -0.001 | givinostat -0.063 | barasertib 0.009

CTSH (UniProt P09668)
inactive: IRAK-1-4 Inhibitor I 0.009 | ibrutinib 0.034 | [1] 0.005 | ralimetinib 0.104 | [2] 0.005 | [3] -0.142 | [4] -0.016 | pinometostat -0.06 | [6] -0.043 | [7] -0.007 | [8] 0.066 | [9] 0.013 | [10] 0.093 | Nexturastat A -0.047 | vemurafenib 0.023 | [11] -0.034 | [12] 0.157 | givinostat 0.003 | barasertib -0.019

CTSC (UniProt P53634)
inactive: IRAK-1-4 Inhibitor I 0.008 | ibrutinib 0.011 | [1] -0.003 | ralimetinib -0.034 | [2] 0.016 | [3] -0.061 | [4] 0.015 | pinometostat -0.031 | [6] -0.038 | [7] -0.113 | [8] 0.001 | [9] 0.059 | [10] -0.003 | Nexturastat A -0.009 | vemurafenib 0.035 | [11] 0.01 | [12] 0.03 | givinostat 0.017 | barasertib 0.023

CTBP2 isoform 2 (UniProt P56545)
inactive: IRAK-1-4 Inhibitor I -0.02 | ibrutinib 0.002 | [1] -0.072 | ralimetinib -0.091 | [2] 0.014 | [3] 0.035 | [4] -0.006 | pinometostat -0.055 | [5] 0.024 | [6] 0.044 | [7] -0.016 | [8] 0.023 | [9] -0.006 | [10] 0.06 | Nexturastat A -0.084 | vemurafenib -0.013 | [11] -0.039 | [12] 0.001 | givinostat 0.027 | barasertib 0.009

DCAKD (UniProt Q8WVC6)
inactive: IRAK-1-4 Inhibitor I 0.007 | ibrutinib -0.015 | [1] -0.015 | ralimetinib -0.02 | [2] -0.102 | [3] -0.168 | [4] 0.032 | pinometostat 0.026 | [5] -0.123 | [6] 0.101 | [7] -0.035 | [8] -0.005 | [9] -0.004 | [10] -0.162 | Nexturastat A 0.084 | vemurafenib 0.015 | [11] 0 | [12] -0.044 | givinostat 0.004 | barasertib 0.068

CSPP1 (UniProt Q1MSJ5)
inactive: IRAK-1-4 Inhibitor I 0.052 | ibrutinib 0.014 | [1] -0.12 | ralimetinib -0.146 | [2] 0.012 | [3] -0.03 | [4] 0.133 | pinometostat 0.086 | [5] 0.049 | [6] 0.035 | [7] -0.009 | [8] -0.03 | [9] 0.018 | [10] -0.02 | Nexturastat A 0.014 | vemurafenib -0.024 | [11] -0.067 | [12] -0.071 | givinostat -0.021 | barasertib -0.008

DCAF6 isoform 3 (UniProt Q58WW2)
inactive: IRAK-1-4 Inhibitor I 0.025 | ibrutinib -0.004 | [1] -0.018 | ralimetinib -0.022 | [2] -0.022 | [3] 0.056 | [4] 0.023 | pinometostat -0.004 | [6] -0.034 | [7] 0.016 | [8] -0.035 | [9] -0.034 | [10] -0.037 | Nexturastat A -0.041 | vemurafenib -0.032 | [11] -0.047 | [12] 0.011 | givinostat -0.058 | barasertib 0.008

CXorf56 (UniProt Q9H5V9)
inactive: IRAK-1-4 Inhibitor I -0.026 | ibrutinib -0.063 | [1] -0.026 | ralimetinib 0.03 | [2] 0.028 | [3] 0.065 | [4] 0.045 | pinometostat -0.023 | [5] -0.024 | [6] 0.087 | [7] 0.002 | [8] -0.034 | [9] 0.009 | [10] -0.006 | Nexturastat A 0.002 | vemurafenib -0.015 | [11] -0.02 | [12] 0.015 | givinostat 0.048 | barasertib 0.028

CTNNA1 isoform 2 (UniProt P35221)
inactive: IRAK-1-4 Inhibitor I 0.062 | ibrutinib 0.014 | [1] -0.039 | ralimetinib 0.029 | [2] -0.05 | [3] 0.046 | [4] 0.045 | pinometostat 0.016 | [5] 0.047 | [6] -0.027 | [7] -0.012 | [8] -0.009 | [9] -0.025 | [10] -0.001 | Nexturastat A 0.035 | vemurafenib 0.021 | [11] -0.013 | [12] -0.075 | givinostat 0.008 | barasertib 0.01

Quoted from the results shown (two entries):
CSTF1 (UniProt Q05048)
inactive: IRAK-1-4 Inhibitor I 0.012 | ibrutinib -0.011 | [1] 0.043 | ralimetinib -0.136 | [2] 0.021 | [3] 0.126 | [4] -0.098 | pinometostat -0.079 | [5] 0.079 | [6] 0.158 | [7] -0.027 | [8] -0.052 | [9] 0.022 | [10] 0.004 | Nexturastat A -0.169 | vemurafenib -0.026 | [11] -0.033 | [12] -0.066 | givinostat -0.115 | barasertib -0.02

CYCS (UniProt P99999)
inactive: IRAK-1-4 Inhibitor I 0.095 | ibrutinib -0.02 | [1] 0.028 | ralimetinib -0.02 | [2] 0.037 | [3] 0.087 | [4] 0.034 | pinometostat -0.038 | [5] 0.067 | [6] 0.012 | [7] -0.032 | [8] 0.012 | [9] 0.015 | [10] 0.002 | Nexturastat A -0.138 | vemurafenib -0.009 | [11] -0.01 | [12] 0.02 | givinostat -0.04 | barasertib 0.013

— the supplement of paper PMC10849652
